Values are relative to the signal before dosing, not to a vehicle control; the signal also falls without drug.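 Labels refer to human fibroblasts, largely primary: uterine (C12385, HUF), lung (H6013), bone (Hs27A), adrenal (HADF), skin (WS1), plus mammary HMF and breast cancer-associated Hs343T. Cancer lines are basal-like or mesenchymal-like triple-negative breast cancer. The paper counts as hits responses shifting over 3x the replicate standard deviation. The tissue of the other fibroblasts is not given here.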
Test system: MDAMB436
Experiment: relative JC-1 red fluorescence (viability) vs pre-drug, coculture with fibroblast (fraction); higher = more viable cancer cells
Experimental: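 JC-1 labelled TNBC cells cocultured 1:1 (1,500 cells each) with CellTrace Violet stained primary or stromal fibroblasts in 384-well plates in FluoroBrite medium, treated with one of 42 anticancer drugs at 0.1, 1, 10 or 100 uM. JC-1 red fluorescence (mitochondrial integrity in cancer cells only) was read by plate reader every 8 h for 72 h. Values are normalised to each well's pre-drug value. The stock of one drug was tenfold lower, so its dose labels may be too high.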

CC(=O)O[C@@]12CO[C@@H]1C[C@H](O)[C@@]1(C)C(=O)[C@H](O)C3=C(C)[C@@H](OC(=O)[C@H](O)[C@@H](NC(=O)OC(C)(C)C)c4ccccc4)C[C@@](O)([C@@H](OC(=O)c4ccccc4)[C@H]21)C3(C)C [Docetaxel]
relative JC-1 red fluorescence
Details	8 h	16 h	24 h	32 h	40 h	48 h	56 h	64 h	72 h
0.1 µM, coculture fibroblast: C12385	0.738	0.68	0.653	0.575	0.528	0.515	0.509	0.513	0.521
0.1 µM, coculture fibroblast: H6013	0.766	0.731	0.715	0.716	0.722	0.766	0.757	0.778	0.763
0.1 µM, coculture fibroblast: H6019	0.709	0.657	0.625	0.5519	0.516	0.51	0.496	0.485	0.484
0.1 µM, coculture fibroblast: H6076	0.766	0.7129	0.701	0.652	0.658	0.648	0.672	0.682	0.695
0.1 µM, coculture fibroblast: H6231	0.7459	0.655	0.675	0.59	0.586	0.559	0.553	0.542	0.527
0.1 µM, coculture fibroblast: HADF	0.81	0.73	0.702	0.681	0.682	0.7077	0.668	0.67095	0.645
0.1 µM, coculture fibroblast: HCFa	0.7316	0.686	0.66	0.633	0.616	0.643	0.595	0.59	0.548
0.1 µM, coculture fibroblast: HCPF	0.755	0.6916	0.695	0.6462	0.657	0.6288	0.6328	0.62	0.6124
0.1 µM, coculture fibroblast: HHSteC	0.7867	0.771	0.741	0.727	0.72	0.737	0.689	0.681	0.64
0.1 µM, coculture fibroblast: HMF	0.7279	0.6707	0.648	0.606	0.6039	0.5674	0.5738	0.556	0.5489
0.1 µM, coculture fibroblast: HPFa	0.875	0.788	0.753	0.701	0.688	0.6903	0.627	0.6202	0.579
0.1 µM, coculture fibroblast: HUF	0.865	0.759	0.757	0.693	0.645	0.623	0.608	0.599	0.594
0.1 µM, coculture fibroblast: Hs5	0.745	0.6911	0.6855	0.634	0.643	0.6175	0.64	0.6214	0.6426
0.1 µM, coculture fibroblast: Hs27A	0.8131	0.735	0.732	0.733	0.749	0.842	0.781	0.798	0.745
0.1 µM, coculture fibroblast: Hs343T	0.709	0.652	0.616	0.578	0.569	0.538	0.537	0.525	0.52
0.1 µM, coculture fibroblast: WS1	0.742	0.698	0.673	0.588	0.552	0.529	0.516	0.503	0.508
1 µM, coculture fibroblast: C12385	0.81869	0.744	0.674	0.614	0.568	0.549	0.533	0.523	0.528
1 µM, coculture fibroblast: H6013	0.864	0.791	0.771	0.782	0.789	0.828	0.82	0.832	0.819
1 µM, coculture fibroblast: H6019	0.791	0.681	0.686	0.627	0.602	0.591	0.565	0.553	0.539
1 µM, coculture fibroblast: H6076	0.726	0.622	0.636	0.61	0.615	0.611	0.654	0.67	0.693
1 µM, coculture fibroblast: H6231	0.767	0.6781	0.645	0.572	0.549	0.525	0.525	0.505	0.495
1 µM, coculture fibroblast: HADF	0.847	0.7566	0.73	0.712	0.707	0.724	0.683	0.6894	0.6675
1 µM, coculture fibroblast: HCFa	0.847	0.735	0.721	0.684	0.65	0.663	0.616	0.606	0.556
1 µM, coculture fibroblast: HCPF	0.779	0.701	0.659	0.622	0.6	0.571	0.557	0.543	0.526
1 µM, coculture fibroblast: HHSteC	0.84	0.774	0.744	0.718	0.712	0.727	0.678	0.667	0.635
1 µM, coculture fibroblast: HMF	0.7588	0.661	0.649	0.616	0.608	0.586	0.587	0.573	0.571
1 µM, coculture fibroblast: HPFa	0.91	0.858	0.812	0.771	0.745	0.757	0.689	0.6752	0.639
1 µM, coculture fibroblast: HUF	0.844	0.749	0.7134	0.6313	0.573	0.537	0.512	0.504	0.501
1 µM, coculture fibroblast: Hs5	0.77263	0.692	0.708	0.674	0.674	0.658	0.686	0.68	0.691
1 µM, coculture fibroblast: Hs27A	0.873	0.825	0.758	0.75808	0.7565	0.822	0.768	0.789	0.728
1 µM, coculture fibroblast: Hs343T	0.751	0.6323	0.588	0.549	0.525	0.492	0.4879	0.4833	0.476
1 µM, coculture fibroblast: WS1	0.8	0.693	0.671	0.595	0.556	0.533	0.515	0.503	0.507
10 µM, coculture fibroblast: C12385	0.782	0.75	0.741	0.674	0.646	0.627	0.606	0.592	0.595
10 µM, coculture fibroblast: H6013	0.8399	0.817	0.803	0.798	0.788	0.819	0.793	0.795	0.775
10 µM, coculture fibroblast: H6019	0.7691	0.75	0.752	0.704	0.689	0.691	0.677	0.674	0.667
10 µM, coculture fibroblast: H6076	0.685	0.636	0.628	0.59	0.604	0.59	0.624	0.632	0.636
10 µM, coculture fibroblast: H6231	0.71	0.613	0.652	0.5748	0.572	0.551	0.548	0.539	0.5341
10 µM, coculture fibroblast: HADF	0.8059	0.7859	0.765	0.745	0.7485	0.776	0.729	0.723	0.691
10 µM, coculture fibroblast: HCFa	0.8079	0.762	0.725	0.69	0.66	0.673	0.62	0.617	0.571
10 µM, coculture fibroblast: HCPF	0.702	0.664	0.664	0.598	0.588	0.557	0.55	0.541	0.539
10 µM, coculture fibroblast: HHSteC	0.823	0.808	0.779	0.758	0.746	0.761	0.707	0.701	0.665
10 µM, coculture fibroblast: HMF	0.718	0.668	0.629	0.582	0.569	0.535	0.543	0.52344	0.5252
10 µM, coculture fibroblast: HPFa	0.908	0.885	0.867	0.819	0.811	0.81	0.751	0.731	0.684
10 µM, coculture fibroblast: HUF	0.8335	0.7787	0.762	0.688	0.626	0.605	0.588	0.574	0.573
10 µM, coculture fibroblast: Hs5	0.738	0.687	0.669	0.602	0.587	0.547	0.546	0.521	0.521
10 µM, coculture fibroblast: Hs27A	0.859	0.827	0.834	0.838	0.841	0.927	0.857	0.868	0.809
10 µM, coculture fibroblast: Hs343T	0.754	0.7	0.665	0.61	0.571	0.534	0.517	0.506	0.504
10 µM, coculture fibroblast: WS1	0.78	0.744	0.723	0.645	0.609	0.579	0.559	0.543	0.532
100 µM, coculture fibroblast: C12385	0.8496	0.784	0.7443	0.669	0.611	0.581	0.548	0.523	0.512
100 µM, coculture fibroblast: H6013	0.8839	0.8006	0.773	0.784	0.7672	0.803	0.784	0.787	0.774
100 µM, coculture fibroblast: H6019	0.804	0.746	0.761	0.712	0.71	0.713	0.696	0.692	0.685
100 µM, coculture fibroblast: H6076	0.7	0.586	0.563	0.543	0.547	0.544	0.5731	0.5866	0.5963
100 µM, coculture fibroblast: H6231	0.717	0.6248	0.545	0.522	0.502	0.485	0.484	0.467	0.466
100 µM, coculture fibroblast: HADF	0.8615	0.7914	0.765	0.754	0.734	0.754	0.697	0.691	0.657
100 µM, coculture fibroblast: HCFa	0.874	0.835	0.809	0.794	0.764	0.784	0.732	0.739	0.68841
100 µM, coculture fibroblast: HCPF	0.735	0.658	0.571	0.525	0.519	0.494	0.4861	0.472	0.4622
100 µM, coculture fibroblast: HHSteC	0.853	0.828	0.815	0.799	0.797	0.808	0.753	0.758	0.725
100 µM, coculture fibroblast: HMF	0.835	0.711	0.626	0.601	0.601	0.58	0.589	0.577	0.573
100 µM, coculture fibroblast: HPFa	0.89229	0.848	0.7975	0.758	0.734	0.749	0.69	0.68	0.638
100 µM, coculture fibroblast: HUF	0.8776	0.793	0.778	0.716	0.661	0.634	0.615	0.608	0.608
100 µM, coculture fibroblast: Hs5	0.686	0.612	0.574	0.529	0.526	0.497	0.514	0.489	0.485
100 µM, coculture fibroblast: Hs27A	0.894	0.874	0.857	0.868	0.87	0.77	0.736	0.713	0.809
100 µM, coculture fibroblast: Hs343T	0.685	0.5482	0.544	0.514	0.508	0.485	0.494	0.491	0.5036
100 µM, coculture fibroblast: WS1	0.853	0.776	0.7431	0.666	0.60909	0.5826	0.544	0.511	0.494

From the supplement of paper PMC6078165
